Measurements as given in US8497380B2, “Substituted acetophenones useful as PDE4 inhibitors” (Leo Pharma A/S, priority 2006, dated 2013).
Some entries share one result that the patent states for a list of compounds.

Chains of the proteins cited; added tags and fusions are not shown. Residues count along the entry.
UniProt Q08499, 1-673 isoform Q08499-2: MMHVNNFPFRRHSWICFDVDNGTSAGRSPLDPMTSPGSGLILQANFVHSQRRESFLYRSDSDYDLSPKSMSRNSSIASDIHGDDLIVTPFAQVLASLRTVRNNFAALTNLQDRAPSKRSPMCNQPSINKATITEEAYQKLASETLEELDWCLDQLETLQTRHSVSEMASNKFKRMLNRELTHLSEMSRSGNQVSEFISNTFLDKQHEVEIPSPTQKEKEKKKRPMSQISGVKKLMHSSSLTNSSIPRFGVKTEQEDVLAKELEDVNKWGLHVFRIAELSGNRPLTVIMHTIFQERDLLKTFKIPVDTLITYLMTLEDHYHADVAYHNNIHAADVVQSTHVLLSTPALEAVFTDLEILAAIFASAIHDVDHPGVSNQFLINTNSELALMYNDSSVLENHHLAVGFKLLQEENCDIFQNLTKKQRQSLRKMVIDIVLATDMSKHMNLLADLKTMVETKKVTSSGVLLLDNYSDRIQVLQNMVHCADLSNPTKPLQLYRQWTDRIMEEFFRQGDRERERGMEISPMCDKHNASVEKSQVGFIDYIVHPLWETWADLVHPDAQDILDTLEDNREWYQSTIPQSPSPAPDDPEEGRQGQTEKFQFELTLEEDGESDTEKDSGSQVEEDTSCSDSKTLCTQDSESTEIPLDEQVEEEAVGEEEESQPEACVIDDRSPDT

What follows are compounds tested against Human recombinant PDE4 (Gene bank accession no NM—006203) (Homo sapiens, UniProt Q08499) (assay: PDE4 Assay). Details: 50% inhibition of substrate (cAMP) cleavage; 1 hour incubation; test compound up to 10 uM; SPA beads.
Assay type: biochemical

| SMILES | −log IC50 (M) |
| --- | --- |
| CNC(=O)COc1c(C(=O)Cc2c(Cl)cncc2Cl)ccc(OC)c1OC [Compound 187, 2-{6-[2-(3,5-Dichloro-pyridin-4-yl)-acetyl]-2,3-dimethoxy-phenoxy}-N-methyl-acetamide] | above 6 M |
| C=CCCOc1c(OC)ccc(C(=O)Cc2c(Cl)cncc2Cl)c1OCC=C [Compound 190, 1-(2-Allyloxy-3-but-3-enyloxy-4-methoxy-phenyl)-2-(3,5-dichloro-pyridin-4-yl)-ethanone] | above 6 M |
| C=CCCOc1c(OC)ccc(C(=O)Cc2c(Cl)cncc2Cl)c1OC [Compound 191, 1-(3-But-3-enyloxy-2,4-dimethoxy-phenyl)-2-(3,5-dichloro-pyridin-4-yl)-ethanone] | above 6 M |
| CCCOc1c(OC)ccc(C(=O)Cc2c(Cl)cncc2Cl)c1OC [Compound 192, 2-(3,5-Dichloro-pyridin-4-yl)-1-(2,4-dimethoxy-3-propoxy-phenyl)-ethanone] | above 6 M |
| C=CCOc1c(OC)ccc(C(=O)Cc2c(Cl)cncc2Cl)c1OC [Compound 193, 1-(3-Allyloxy-2,4-dimethoxy-phenyl)-2-(3,5-dichloro-pyridin-4-yl)-ethanone] | above 6 M |
| COc1ccc(C(=O)Cc2c(Cl)cncc2Cl)c(OC)c1OCCC=C(C)C [Compound 194, 2-(3,5-Dichloro-pyridin-4-yl)-1-[2,4-dimethoxy-3-(4-methyl-pent-3-enyloxy)-phenyl]-ethanone] | above 6 M |
| COc1ccc(C(=O)Cc2c(Cl)cncc2Cl)c(OC)c1OCCO [Compound 195, 2-(3,5-Dichloro-pyridin-4-yl)-1-[3-(2-hydroxy-ethoxy)-2,4-dimethoxy-phenyl]-ethanone] | above 6 M |
| COc1ccc(C(=O)Cc2c(Cl)cncc2Cl)c(OC)c1OCCc1ccccc1 [Compound 196, 2-(3,5-Dichloro-pyridin-4-yl)-1-(2,4-dimethoxy-3-phenethyloxy-phenyl)-ethanone] | above 6 M |
| COc1ccc(C(=O)Cc2c(Cl)cncc2Cl)c(OC)c1OCc1ccccc1 [Compound 197, 1-(3-Benzyloxy-2,4-dimethoxy-phenyl)-2-(3,5-dichloro-pyridin-4-yl)-ethanone] | above 6 M |
| CCC=CCOc1c(OC)ccc(C(=O)Cc2c(Cl)cncc2Cl)c1OC [Compound 198, 2-(3,5-Dichloro-pyridin-4-yl)-1-(2,4-dimethoxy-3-pent-2-enyloxy-phenyl)-ethanone] | above 6 M |
| COCCOc1c(OC)ccc(C(=O)Cc2c(Cl)cncc2Cl)c1OC [Compound 199, 2-(3,5-Dichloro-pyridin-4-yl)-1-[2,4-dimethoxy-3-(2-methoxy-ethoxy)-phenyl]-ethanone] | above 6 M |
| CC#CCOc1c(OC)ccc(C(=O)Cc2c(Cl)cncc2Cl)c1OC [Compound 200, 1-(3-But-2-ynyloxy-2,4-dimethoxy-phenyl)-2-(3,5-dichloro-pyridin-4-yl)-ethanone] | above 6 M |
| C#CCOc1c(OC)ccc(C(=O)Cc2c(Cl)cncc2Cl)c1OC [Compound 201, 2-(3,5-Dichloro-pyridin-4-yl)-1-(2,4-dimethoxy-3-prop-2-ynyloxy-phenyl)-ethanone] | above 6 M |
| COc1ccc(C(=O)Cc2c(Cl)cncc2Cl)c(OCC(=O)N2CCCC2)c1OC [Compound 202, 2-(3,5-Dichloro-pyridin-4-yl)-1-[3,4-dimethoxy-2-(2-oxo-2-pyrrolidin-1-yl-ethoxy)-phenyl]-ethanone] | above 6 M |
| COc1ccc(C(=O)Cc2c(Cl)cncc2Cl)c(OCC(=O)N2CCOCC2)c1OC [Compound 204, 2-(3,5-Dichloro-pyridin-4-yl)-1-[3,4-dimethoxy-2-(2-morpholin-4-yl-2-oxo-ethoxy)-phenyl]-ethanone] | above 6 M |
| COc1ccc(C(=O)Cc2c(Cl)cncc2Cl)c(OCC(=O)NC(C)C)c1OC [Compound 209, 2-{6-[2-(3,5-Dichloro-pyridin-4-yl)-acetyl]-2,3-dimethoxy-phenoxy}-N-isopropyl-acetamide] | above 6 M |
| CCCCNC(=O)COc1c(C(=O)Cc2c(Cl)cncc2Cl)ccc(OC)c1OC [Compound 210, N-Butyl-2-{6-[2-(3,5-dichloro-pyridin-4-yl)-acetyl]-2,3-dimethoxy-phenoxy}-acetamide] | above 6 M |
| COc1ccc(C(=O)Cc2c(Cl)cncc2Cl)c(OCC(=O)NC2CCCC2)c1OC [Compound 211, N-Cyclopentyl-2-{6-[2-(3,5-dichloro-pyridin-4-yl)-acetyl]-2,3-dimethoxy-phenoxy}-acetamide] | above 6 M |
| COc1ccc(C(=O)Cc2c(Cl)cncc2Cl)c(OCC(=O)NCCC(C)C)c1OC [Compound 212, 2-{6-[2-(3,5-Dichloro-pyridin-4-yl)-acetyl]-2,3-dimethoxy-phenoxy}-N-(3-methyl-butyl)-acetamide] | above 6 M |

| SMILES | −log IC50 (M) |
| --- | --- |
| COc1ccc(CNC(=O)COc2c(C(=O)Cc3c(Cl)cncc3Cl)ccc(OC)c2OC)cc1 [Compound 213, 2-{6-[2-(3,5-Dichloro-pyridin-4-yl)-acetyl]-2,3-dimethoxy-phenoxy}-N-(4-methoxy-benzyl)-acetamide] | above 6 M |
| COc1ccc(C(=O)Cc2c(Cl)cncc2Cl)c(OCC(=O)NCC(C)(C)C)c1OC [Compound 214] | above 6 M |
| COc1ccc(C(=O)Cc2c(Cl)cncc2Cl)c(OCC(=O)NC2CCCCC2)c1OC [Compound 215, N-Cyclohexyl-2-{6-[2-(3,5-dichloro-pyridin-4-yl)-acetyl]-2,3-dimethoxy-phenoxy}-acetamide] | above 6 M |
| COc1cccc(CNC(=O)COc2c(C(=O)Cc3c(Cl)cncc3Cl)ccc(OC)c2OC)c1 [Compound 216, 2-{6-[2-(3,5-Dichloro-pyridin-4-yl)-acetyl]-2,3-dimethoxy-phenoxy}-N-(3-methoxy-benzyl)-acetamide] | above 6 M |
| COc1ccc(C(=O)Cc2c(Cl)cncc2Cl)c(OCC(=O)NC2CCCCCC2)c1OC [Compound 217, N-Cycloheptyl-2-{6-(2-(3,5-dichloro-pyridin-4-yl)-acetyl)-2,3-dimethoxy-phenoxy}-acetamide] | above 6 M |
| COc1ccccc1CNC(=O)COc1c(C(=O)Cc2c(Cl)cncc2Cl)ccc(OC)c1OC [Compound 218, 2-{6-[2-(3,5-Dichloro-pyridin-4-yl)-acetyl]-2,3-dimethoxy-phenoxy}-N-(2-methoxy-benzyl)-acetamide] | above 6 M |
| COc1ccc(C(=O)Cc2c(Cl)cncc2Cl)c(OCC(=O)NCC2CCCCC2)c1OC [Compound 219, N-Cyclohexylmethyl-2-{6-[2-(3,5-dichloro-pyridin-4-yl)-acetyl]-2,3-dimethoxy-phenoxy}-acetamide] | above 6 M |
| COc1ccc(C(=O)Cc2c(Cl)cncc2Cl)c(OCC(=O)N[C@H](C)c2ccccc2)c1OC [Compound 221, (R)-2-{6-[2-(3,5-Dichloro-pyridin-4-yl)-acetyl]-2,3-dimethoxy-phenoxy}-N-(1-phenyl-ethyl)-acetamide] | above 6 M |
| COc1ccc(C(=O)Cc2c(Cl)cncc2Cl)c(OCC(=O)NCCCO)c1OC [Compound 222, 2-{6-[2-(3,5-Dichloro-pyridin-4-yl)-acetyl]-2,3-dimethoxy-phenoxy}-N-(3-hydroxy-propyl)-acetamide] | above 6 M |
| COc1ccc(C(=O)Cc2c(Cl)cncc2Cl)c(OCC(=O)NCCN(C)C)c1OC [Compound 224, 2-{6-[2-(3,5-Dichloro-pyridin-4-yl)-acetyl]-2,3-dimethoxy-phenoxy}-N-(2-dimethylamino-ethyl)-acetamide] | above 6 M |
| COc1ccc(C(=O)Cc2c(Cl)cncc2Cl)c(OCC(=O)NCCCN(C)C)c1OC [Compound 225, 2-{6-[2-(3,5-Dichloro-pyridin-4-yl)-acetyl]-2,3-dimethoxy-phenoxy}-N-(3-dimethylamino-propyl)-acetamide] | above 6 M |
| COc1ccc(C(=O)Cc2c(Cl)cncc2Cl)c(OCC(=O)N[C@@H](C)c2ccccc2)c1OC [Compound 226, (S)-2-(6-[2-(3,5-Dichloro-pyridin-4-yl)-acetyl]-2,3-dimethoxy-phenoxy)-N-(1-phenyl-ethyl)-acetamide] | above 6 M |
| COc1ccc(C(=O)Cc2c(Cl)cncc2Cl)c(OCC(=O)NCCCOC(C)C)c1OC [Compound 227, 2-{6-[2-(3,5-Dichloro-pyridin-4-yl)-acetyl]-2,3-dimethoxy-phenoxy}-N-(3-isopropoxy-propyl)-acetamide] | above 6 M |
| COc1ccc(C(=O)Cc2c(Cl)cncc2Cl)c(OCC(=O)NCc2ccco2)c1OC [Compound 228, 2-{6-[2-(3,5-Dichloro-pyridin-4-yl)-acetyl]-2,3-dimethoxy-phenoxy}-N-furan-2-ylmethyl-acetamide] | above 6 M |
| COc1ccc(C(=O)Cc2c(Cl)cncc2Cl)c(OCC(=O)NCc2ccccn2)c1OC [Compound 229, 2-{6-[2-(3,5-Dichloro-pyridin-4-yl)-acetyl]-2,3-dimethoxy-phenoxy}-N-pyridin-2-ylmethyl-acetamide] | above 6 M |
| COc1ccc(C(=O)Cc2c(Cl)cncc2Cl)c(OCC(=O)NCc2cccnc2)c1OC [Compound 230, 2-{6-[2-(3,5-Dichloro-pyridin-4-yl)-acetyl]-2,3-dimethoxy-phenoxy}-N-pyridin-3-ylmethyl-acetamide] | above 6 M |
| COc1ccc(C(=O)Cc2c(Cl)cncc2Cl)c(OCC(=O)NCCOc2ccccc2)c1OC [Compound 231, 2-{6-[2-(3,5-Dichloro-pyridin-4-yl)-acetyl]-2,3-dimethoxy-phenoxy}-N-(2-phenoxy-ethyl)-acetamide] | above 6 M |
| COc1ccc(C(=O)Cc2c(Cl)cncc2Cl)c(OCC(=O)NCc2ccncc2)c1OC [Compound 232, 2-{6-[2-(3,5-Dichloro-pyridin-4-yl)-acetyl]-2,3-dimethoxy-phenoxy}-N-pyridin-4-ylmethyl-acetamide] | above 6 M |
| CCc1ccc(CNC(=O)COc2c(C(=O)Cc3c(Cl)cncc3Cl)ccc(OC)c2OC)cc1 [Compound 233, 2-{6-[2-(3,5-Dichloro-pyridin-4-yl)-acetyl]-2,3-dimethoxy-phenoxy}-N-(4-ethyl-benzyl)-acetamide] | above 6 M |
